Values from PubChem BioAssay AID504808 (Drosophila RNAi Screening Center, 2011).
Screen: 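Fly genes required to hold E2F transcription in check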 (primary screen). System: Drosophila S2 cells. Reagents: long dsRNA against Drosophila genes. Measured: 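Dual luciferase plate measurements; E2F-specific signal taken as firefly over Renilla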. Reading the numbers: E2F firefly: higher = more E2F reporter activity; Renilla normaliser: higher = more normaliser reporter signal. Active means: 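a knock-down counted as active when the firefly/Renilla E2F signal rose above 50%, a threshold chosen arbitrarily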.
The screen tested about 21,000 reagents; shown is an unselected part of those that have a named target and a result. Of all reagents, 18 (0.084%) were called active. 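Raw counts without plate normalisation, one of two replicates; the ratio scores behind the calls were not deposited.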 A plus sign joins genes that one reagent is predicted to hit. No sequences are given here. The record does not give: the amount of reagent, the time to read-out.

no.	target gene	DRSC id	E2F firefly, rep 1	Renilla normaliser, rep 1	outcome
1	Paris (Parkin Interacting Substrate)	DRSC00451	89338	3689	inactive
2	CG14610 + asRNA:CR42738	DRSC12554	1.28e5	6678	inactive
3	pirk (poor Imd response upon knock-in)	DRSC04269	1.10e5	4797	inactive
4	Efa6 (Exchange factor for Arf 6)	DRSC13569	81173	2176	inactive
5	Efa6 (Exchange factor for Arf 6)	DRSC15312	74984	4745	inactive
6	Efa6 (Exchange factor for Arf 6)	DRSC16141	78962	6394	inactive
7	CG12860	DRSC06200	1.06e5	4164	inactive
8	Rheb (Ras homolog enriched in brain)	DRSC12148	71402	3356	inactive
9	Muc68D (Mucin 68D)	DRSC10569	72691	3819	inactive
10	mge (maggie)	DRSC08721	1.11e5	4838	inactive
11	CYLD (Cylindromatosis)	DRSC02870	1.42e5	5092	inactive
12	Trp1 (Translocation protein 1)	DRSC03465	1.64e5	5622	inactive
13	Mccc2 (Methylcrotonoyl-CoA carboxylase 2)	DRSC04987	89361	3973	inactive
14	CG14406	DRSC19592	1.52e5	6481	inactive
15	QIL1	DRSC10888	1.11e5	7884	inactive
16	CG12963	DRSC06265	98351	4123	inactive
17	CG17658	DRSC04292	1.07e5	4287	inactive
18	CG33309	DRSC01421	1.28e5	6001	inactive
19	hpo (hippo)	DRSC06065	70023	3442	inactive
20	CG13579	DRSC04215	1.19e5	4602	inactive
21	CheA46a (Chemosensory protein A 46a)	DRSC05184	1.33e5	5603	inactive
22	CG17768 + LSm-4	DRSC02845	1.53e5	5387	inactive
23	E2f1 (E2F transcription factor 1)	DRSC16655	24025	6177	inactive
24	AP-2alpha (Adaptor Protein complex 2, alpha subunit)	DRSC00800	1.70e5	5753	inactive
25	p24-1 (p24-related-1)	DRSC19827	79204	4864	inactive
26	D12	DRSC03311	95950	4211	inactive
27	CG9084	DRSC07335	95270	4187	inactive
28	CG5597	DRSC04517	84243	3527	inactive
29	Idgf3 (Imaginal disc growth factor 3)	DRSC03351	82020	3765	inactive
30	Gbeta13F (G protein beta subunit 13F)	DRSC20247	7740	708	inactive
31	CG15705	DRSC06576	1.54e5	4394	inactive
32	CG13041	DRSC09922	1.69e5	9401	inactive
33	CG15731	DRSC19698	47133	3224	inactive
34	Gp150	DRSC04618	99120	4631	inactive
35	kkv (krotzkopf verkehrt)	DRSC12315	70588	3496	inactive
36	Nup160 (Nucleoporin 160kD)	DRSC02774	1.24e5	4542	inactive

Records listed so far whose gene name starts with G or g (2):
target gene	DRSC id	E2F firefly, rep 1	Renilla normaliser, rep 1	outcome
Gbeta13F (G protein beta subunit 13F)	DRSC20247	7740	708	inactive
Gp150	DRSC04618	99120	4631	inactive

The list goes on.
no.	target gene	DRSC id	E2F firefly, rep 1	Renilla normaliser, rep 1	outcome
37	Arl8 (ADP ribosylation factor-like 8)	DRSC16334	1.38e5	6322	inactive
38	CG7888	DRSC10926	77028	3294	inactive
39	Cpr49Aa (Cuticular protein 49Aa)	DRSC07197	98733	4304	inactive
40	blanks	DRSC09757	1.02e5	4425	inactive
41	CG31198	DRSC15891	71182	3152	inactive
42	SCAP (SREBP cleavage activating protein)	DRSC04869	1.05e5	4363	inactive
43	SCAP (SREBP cleavage activating protein)	DRSC04907	1.16e5	4874	inactive
44	CG9673	DRSC20202	2.21e5	15081	inactive
45	spn-B (spindle B)	DRSC17063	1.17e5	5569	inactive
46	wg (wingless)	DRSC03636	1.57e5	5196	inactive
47	Cpr62Bb (Cuticular protein 62Bb)	DRSC08404	1.12e5	5132	inactive
48	Cyp309a2 (Cytochrome P450 309a2)	DRSC00526	1.61e5	6238	inactive
49	CG9757	DRSC16557	1.19e5	6225	inactive
50	ImpL2 (Ecdysone-inducible gene L2)	DRSC08666	83480	4353	inactive
51	CG13634	DRSC14635	1.02e5	5791	inactive
52	CG7768	DRSC10914	76778	3686	inactive
53	CG5504	DRSC04701	81601	3850	inactive
54	KdelR (KDEL receptor)	DRSC03353	80912	3415	inactive
55	Lcp65Ag3 (Larval cuticle protein)	DRSC10345	1.01e5	3934	inactive
56	CG11076	DRSC17197	1.18e5	6556	inactive
57	Eip93F (Ecdysone-induced protein 93F)	DRSC13527	78935	2575	inactive
58	Eip93F (Ecdysone-induced protein 93F)	DRSC16661	1.17e5	5907	inactive
59	nuf (nuclear fallout)	DRSC11379	1.54e5	7421	inactive
60	CG42340	DRSC17458	83168	2592	inactive
61	CG42340	DRSC17841	97127	4471	inactive
62	CG42340	DRSC18305	98067	5146	inactive
63	CG7564	DRSC10880	1.36e5	6790	inactive
64	Uxs (UDP-xylose synthase)	DRSC10941	77287	3470	inactive
65	Rrp40 (Ribosomal RNA processing 40)	DRSC00074	1.30e5	6030	inactive
66	Cpr65Ea (Cuticular protein 65Ea)	DRSC11027	85426	3538	inactive
67	Sod2 (Superoxide dismutase 2 (Mn))	DRSC07554	63890	3193	inactive
68	CG33116	DRSC02045	82686	3810	inactive
69	Ost48 (Oligosaccharyltransferase 48kD subunit)	DRSC18693	7974	812	inactive
70	Gcn5 (Gcn5 acetyltransferase)	DRSC11248	67816	4087	inactive
71	CG15922	DRSC15128	1.27e5	6795	inactive
72	CG7044	DRSC16180	1.24e5	6631	inactive
73	Naam (Nicotinamide amidase)	DRSC16252	1.22e5	6753	inactive
74	Orai	DRSC05684	1.66e5	5388	inactive
75	Acbp2 (Acyl-CoA binding protein 2)	DRSC11141	1.02e5	4022	inactive
76	CR42532 (pseudo)	DRSC06713	92363	4452	inactive
77	CG3823	DRSC18325	58318	3966	inactive
78	bou (boudin)	DRSC17924	1.20e5	5684	inactive
79	Sry-alpha (Serendipity alpha)	DRSC16867	1.09e5	5083	inactive
80	CG11426	DRSC11658	1.16e5	5435	inactive
81	Dlish (Dachs ligand with SH3s)	DRSC06016	1.64e5	5179	inactive
82	CG10317	DRSC14229	1.15e5	6885	inactive
83	CG17636	DRSC20648	1.44e5	6469	inactive
84	MCTS1 (Malignant T cell amplified sequence 1)	DRSC18393	8514	840	inactive
